The subject of the assay is CD2F1 mice, L1210 leukemia ip, survival T/C. The assay can be described thus: NCI In Vivo Anticancer Drug Screen. Data for tumor model L1210 Leukemia (intraperitoneal) in CD2F1 (CDF1) mice. The conditions noted are these: T/C endpoint: mean survival time, higher T/C = longer survival. Put shortly: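 In this screen, transplantable tumors were grown in mice given either the compound or its vehicle. Results were expressed as the treated measurement relative to the control measurement.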

Where [1] appears, read: dose: 25.0 mg/kg/injection, schedule: Q01DX001 (ip), vehicle: DMSO.
Setting [2] is: dose: 100.0 mg/kg/injection, schedule: Q01DX001 (ip), vehicle: DMSO.
The mark [3] stands for this setting: dose: 200.0 mg/kg/injection, schedule: Q01DX001 (ip), vehicle: DMSO.
[4] abbreviates: dose: 400.0 mg/kg/injection, schedule: Q01DX001 (ip), vehicle: DMSO.
Setting [5] is: dose: 100.0 mg/kg/injection, schedule: Q01DX009 (ip), vehicle: saline.
Setting [6] is: dose: 200.0 mg/kg/injection, schedule: Q01DX009 (ip), vehicle: saline.
[7] abbreviates: dose: 50.0 mg/kg/injection, schedule: Q01DX001 (ip), vehicle: DMSO, evaluated on day 60.
[8] abbreviates: dose: 50.0 mg/kg/injection, schedule: Q01DX009 (ip), vehicle: saline.

For 13 compounds, T/C and survivor count results are on record in PubChem BioAssay AID256 (DTP/NCI, 2004).

The list does not hold the whole screen: it gathers some chemical classes. Not every dose and run of a compound is shown. T/C is the treated group as % of the vehicle group. Some entries give survivors of the animals treated and no T/C: the source holds a T/C of zero for them, seemingly a mark for toxic or unscored doses. Some survivor counts are full or nearly so, which does not show that the dose was tolerated: the source hardly ever lists a survival T/C far under the control, and the zero likely stands for such cases as well. Counts of survivors are from the toxicity check (mostly the fifth day) where no day follows; animals may have died later. Schedule codes are those of the source, taken here to give the interval after Q, in days (D) or hours (H), and the number of doses after X. Some entries hold several experiments; the values are given in rising order. Some complexes appear as separate parts, the way the source draws them; their charges need not add up. Where survival is the endpoint, this PubChem deposit counts one and a half times the control or more as active, and values a quarter to a half above the control carry no call in these data; other NCI protocols may use other cut-offs. Some T/C values are marked as having no survivor count here; that says nothing about deaths at the dose. Some T/C values carry the count of animals alive at the toxicity check (mostly the fifth day); where neither a count nor a note follows, no animal had died by that day.

Consider `O=C(CCCN1CCC(n2c(=O)n(CO)c3ccccc32)CC1)c1ccc(F)cc1`, for which the T/C by setting is: (dose: 58.0 mg/kg/injection, schedule: Q04DX003 (ip), vehicle: Klucel (hydroxypropylcellulose) (HPC)) 96 % of control; (dose: 88.0 mg/kg/injection, schedule: Q04DX003 (ip), vehicle: Klucel (hydroxypropylcellulose) (HPC)) 91 % of control; (dose: 133.0 mg/kg/injection, schedule: Q04DX003 (ip), vehicle: Klucel (hydroxypropylcellulose) (HPC)) 102 % of control.
Turning to `NP(=O)(OCCCO)N(CCCl)CCCl` (centres undefined), the T/C by setting is: (dose: 12.5 mg/kg/injection, schedule: Q01DX005 (ip), vehicle: water) 91 % of control; under setting [1], 95 % of control; (dose: 25.0 mg/kg/injection, schedule: Q01DX005 (ip), vehicle: water) 95 % of control; (dose: 50.0 mg/kg/injection, schedule: Q01DX001 (ip), vehicle: DMSO) 100 % of control; (dose: 50.0 mg/kg/injection, schedule: Q01DX005 (ip), vehicle: water) 97 % of control; under setting [2], 93 % of control. Besides, the T/C (dose: 100.0 mg/kg/injection, schedule: Q01DX005 (ip), vehicle: water) was 95 % of control; the T/C under setting [3] is 97 % of control; the T/C (dose: 200.0 mg/kg/injection, schedule: Q01DX005 (ip), vehicle: water) is 100 % of control; the T/C under setting [4] was 102 % of control.
`COc1ccc2ccccc2n1.O=[N+]([O-])c1cc([N+](=O)[O-])c(O)c([N+](=O)[O-])c1`: the T/C runs as follows: (dose: 100.0 mg/kg/injection, schedule: Q04DX003 (ip), vehicle: saline) 88 % of control [survivor count not shown]; (dose: 200.0 mg/kg/injection, schedule: Q04DX003 (ip), vehicle: saline) 86 % of control [survivor count not shown]; (dose: 400.0 mg/kg/injection, schedule: Q04DX003 (ip), vehicle: saline) 86 % of control [survivor count not shown].
With `Cc1cc(N(CCCl)CCCl)ccc1N`, the T/C is 106 % of control (dose: 0.25 mg/kg/injection, schedule: Q01DX009 (ip), vehicle: Klucel (hydroxypropylcellulose) (HPC)); 105 % of control (dose: 0.5 mg/kg/injection, schedule: Q01DX009 (ip), vehicle: Klucel (hydroxypropylcellulose) (HPC)); 111 % of control (dose: 1.0 mg/kg/injection, schedule: Q01DX009 (ip), vehicle: Klucel (hydroxypropylcellulose) (HPC)); 113 % of control (dose: 2.0 mg/kg/injection, schedule: Q01DX009 (ip), vehicle: Klucel (hydroxypropylcellulose) (HPC)). For the same compound, the survivor count is 8 of 8 (dose: 4.0 mg/kg/injection, schedule: Q01DX009 (ip), vehicle: Klucel (hydroxypropylcellulose) (HPC)) and 6 of 8 (dose: 8.0 mg/kg/injection, schedule: Q01DX009 (ip), vehicle: Klucel (hydroxypropylcellulose) (HPC)).
For `N#CSc1ccc([N+](=O)[O-])cc1[N+](=O)[O-]`, the T/C under setting [5] was 97 % of control. Further, the survivor count is 0 of 6 under setting [6] and 0 of 6 (dose: 400.0 mg/kg/injection, schedule: Q01DX009 (ip), vehicle: saline).
On to `CCCP(=O)(O)OCCOc1ccc(Cl)cc1Cl`, for which the T/C was 99 % of control [survivor count not shown] (dose: 100.0 mg/kg/injection, schedule: Q04DX003 (ip), vehicle: saline with Tween-80) and 97 % of control [survivor count not shown] (dose: 200.0 mg/kg/injection, schedule: Q04DX003 (ip), vehicle: saline with Tween-80).
In the case of `CN1CC2CC(C1)CN(C)C2.F[P-](F)(F)(F)(F)F`, the T/C is 105 % of control (dose: 100.0 mg/kg/injection, schedule: Q01DX009 (ip), vehicle: saline with Tween-80) and 103 % of control (dose: 200.0 mg/kg/injection, schedule: Q01DX009 (ip), vehicle: saline with Tween-80). Also, the survivor count (dose: 400.0 mg/kg/injection, schedule: Q01DX009 (ip), vehicle: saline with Tween-80) is 1 of 6.
Turning to `CC(=O)CCOP(N)(=O)N(CCCl)CCCl` (centres undefined), the T/C is 108 % of control (dose: 6.25 mg/kg/injection, schedule: Q01DX001 (ip), vehicle: DMSO); 120 % of control (dose: 12.5 mg/kg/injection, schedule: Q01DX001 (ip), vehicle: DMSO); 134 % of control (dose: 25.0 mg/kg/injection, schedule: Q01DX001 (ip), vehicle: DMSO, evaluated on day 30); 128 % of control (dose: 25.0 mg/kg/injection, schedule: Q01DX001 (ip), vehicle: DMSO, evaluated on day 60); 138 % of control (dose: 50.0 mg/kg/injection, schedule: Q01DX001 (ip), vehicle: DMSO, evaluated on day 30); 136 % of control under setting [7]. The T/C by setting is: (dose: 100.0 mg/kg/injection, schedule: Q01DX001 (ip), vehicle: DMSO, evaluated on day 30) 91 % of control [5 of 6 alive]; (dose: 100.0 mg/kg/injection, schedule: Q01DX001 (ip), vehicle: DMSO, evaluated on day 60) 96 % of control. Also, the survivor count under setting [3] was 5 of 6 and the survivor count under setting [4] is 2 of 6.
With `CCN(CC)CCOC(=O)C(O)(c1ccccc1)c1cc(C)c(C)cc1C` (centres undefined), the T/C is, setting by setting: (dose: 75.0 mg/kg/injection, schedule: Q01DX001 (ip), vehicle: saline) 98 % of control; (dose: 150.0 mg/kg/injection, schedule: Q01DX001 (ip), vehicle: saline) 98 % of control.
On to `O=P1(N(CCCl)CCCl)OCCO1`, for which the T/C reads like this: (dose: 62.5 mg/kg/injection, schedule: Q01DX001 (ip), vehicle: water) 112 % of control; (dose: 110.0 mg/kg/injection, schedule: Q01DX001 (ip), vehicle: water) 103 % of control; (dose: 125.0 mg/kg/injection, schedule: Q01DX001 (ip), vehicle: water) 116 % of control; (dose: 167.0 mg/kg/injection, schedule: Q01DX001 (ip), vehicle: water) 114 % of control; (dose: 250.0 mg/kg/injection, schedule: Q01DX001 (ip), vehicle: water) 111 and 128 % of control. In addition, the survivor count is, setting by setting: (dose: 375.0 mg/kg/injection, schedule: Q01DX001 (ip), vehicle: water) 3 of 6; (dose: 500.0 mg/kg/injection, schedule: Q01DX001 (ip), vehicle: water) 2 of 6.
For `S=P(Cl)(Cl)c1ccccc1`, the T/C by setting is: (dose: 100.0 mg/kg/injection, schedule: Q01DX001 (ip), vehicle: saline with Tween-80) 95 % of control; (dose: 200.0 mg/kg/injection, schedule: Q01DX001 (ip), vehicle: saline with Tween-80) 102 % of control [5 of 6 alive]. For the same compound, the survivor count (dose: 400.0 mg/kg/injection, schedule: Q01DX001 (ip), vehicle: saline with Tween-80) is given as 0 of 6.
Consider `CC(=O)CCOP(=O)(N(C)C)N(CCCl)CCCl` (centres undefined), for which the T/C is 103 % of control under setting [1]; 132 % of control (dose: 50.0 mg/kg/injection, schedule: Q01DX001 (ip), vehicle: DMSO, evaluated on day 20); 108 % of control under setting [7]; 102 % of control under setting [2]; 115 % of control under setting [3]; 125 % of control (dose: 266.0 mg/kg/injection, schedule: Q01DX001 (ip), vehicle: DMSO). Under setting [4], the T/C was 137 % of control [5 of 6 alive]. Further, the survivor count reads like this: under setting [2], 4 of 6; under setting [3], 3 of 6; under setting [4], 0 of 6 and 6 of 6; (dose: 600.0 mg/kg/injection, schedule: Q01DX001 (ip), vehicle: DMSO) 3 of 6; (dose: 900.0 mg/kg/injection, schedule: Q01DX001 (ip), vehicle: DMSO) 0 of 6.
As for `[O-]/[N+](C/[N+]([O-])=N/O)=N\O`, the T/C is, setting by setting: (dose: 25.0 mg/kg/injection, schedule: Q01DX009 (ip), vehicle: saline) 98 % of control; under setting [8], 98 % of control; under setting [5], 86 and 98 % of control. The survivor count is, setting by setting: under setting [8], 6 of 6; under setting [6], 1 of 6.
